According to the supplement of paper PMC10338343:
± gives the standard deviation. The entries are a selection whose mix differs from that of the whole data set. Many of these values have a large error. This is one part of the list.

Legend:
[1] = system: MILI (PIWIL2) piRISC loaded with L1MC piRNA (26 nt); assay: pre-steady-state target cleavage rate (min^-1); higher = faster piRNA-guided slicing of the target; settings: guide: L1MC piRNA 5'p-UAACUAAAUACUAUGCAAGCUGUAGG
Procedure, shortened: (§1)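 Cleave-'n-Seq used a transcribed, DNA-blocked target RNA library at 0.1 nM and active affinity-purified piRISC with one synthetic guide at 1 nM, with or without 500 nM GTSF1 partner protein, in HEPES–potassium acetate buffer at 33 °C for 0–8 or 0–960 min. Uncleaved targets were sequenced and normalised to depth and to weakly complementary targets, and three trials were pooled with k3 capped at 0.0001 min^-1. The pre-steady-state cleavage rate was estimated by a burst-and-steady-state fit.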

[2] = system: EfPiwi piRISC loaded with L1MC piRNA (26 nt); assay: pre-steady-state target cleavage rate (min^-1); guide: L1MC piRNA 5'p-UAACUAAAUACUAUGCAAGCUGUAGG; MIWI and MILI are mouse PIWI proteins and EfPiwi is from a freshwater sponge; tags in brackets are library labels; higher = faster piRNA-guided slicing of the target
Procedure, shortened: as §1

[3] = auxiliary factor: none (no GTSF1)
[4] = auxiliary factor: 500 nM Ephydatia muelleri Gtsf1
[5] = auxiliary factor: 500 nM mouse GTSF1
[6] = auxiliary factor: none (no Gtsf1)

| Sequence | pre-steady-state target cleavage rate [1, 3] | pre-steady-state target cleavage rate [2, 4] | pre-steady-state target cleavage rate [1, 5] | pre-steady-state target cleavage rate [2, 6] |
| --- | --- | --- | --- | --- |
| UCCUGGAUCAGCUUGCAUACUAUAUAGUUA | 0.00163 ± 0.0035 | 0.00161 ± 0.0033 | – | – |
| UCCUGGAUCAGCUUGCAUAGUAUUUUCUAA | 0.00108 ± 0.0059 | 0.0024 ± 0.0028 | – | – |
| UCCUGGAUGUCGUUGCAUAGUAUAAUCAAA [g8:g18:cont:t1A] | 0.000198 ± 0.031 | 0.000295 ± 0.0094 | – | – |
| UCCUGGAUGUGCUUGCAUAGUUAUUAGAAA | 0.000958 ± 0.0051 | 0.000309 ± 0.013 | – | – |
| UCCUCCUACAGCUUGCAUAGUAUUAAGAUA | 0.00136 ± 0.0039 | 0.00411 ± 0.0022 | – | – |
| UCCUCCUACAGCUUGCAUAGUAUCUUAGUUA | – | 0.0254 ± 0.011 | 0.285 ± 0.022 | – |
| UCCUGGAUGUGCUUGCAUAGUAUUUGAGUUA | 0.00357 ± 0.0036 | 0.0118 ± 0.0069 | – | – |
| UCCUGGAUGUCCUUGCAUAGUAUUUAGUGUA | 0.00249 ± 0.0036 | 0.00123 ± 0.0036 | – | – |
| UCCUGGUACAGCUUAGCAUAGUAUUUAGUUA | – | 0.0188 ± 0.0058 | 0.296 ± 0.018 | – |
| UCCUGGUACACCUUGGAUAGUAUUUAGUUA | 0.00369 ± 0.0047 | 0.0012 ± 0.0035 | – | – |
| UCCUCCUACAGCUUGCAUAGCAUUUAGUUA | 0.00232 ± 0.0026 | 0.00463 ± 0.0019 | – | – |
| UCCUGGAUGUCGAUGCACUAGUAUUUAGUUA | 0.00013 ± 0.024 | 0.000153 ± 0.023 | – | – |
| UCCUGGAUGUCGAACGUAAGUAAAUAGUUA | – | – | 0.000166 ± 0.022 | 0.000186 ± 0.025 |
| UCCUUCUACAGCUUGCAUAGUAUUUAGUUA | – | 0.119 ± 0.035 | 0.3 ± 0.015 | – |
| UCCUCCUACACCUUGCAUAGUAUUUUGUUA | 0.00176 ± 0.004 | 0.00451 ± 0.0027 | – | – |
| UCCUGGAUCAGCUUGCAUAGUAUUUAGUCA | – | 0.0102 ± 0.0044 | 0.285 ± 0.019 | – |
| UCCUGGAUGUCGAACGUUAGUAUUUAGUCA | 0.000111 ± 0.034 | < 0.0001 | – | – |
| UCCUGGAUGUGCUUGCAUACUAUUUUGUUA | 0.000993 ± 0.0068 | 0.00118 ± 0.0028 | – | – |
| UCCUGCUACAGCUUGCAUAGUAUAAAGUAA | 0.00208 ± 0.003 | 0.00224 ± 0.0017 | – | – |
| UCCUGGAUGUCGAUGCAUAGUAUAUAGAUA | 0.000595 ± 0.0087 | 0.00114 ± 0.0062 | – | – |
| UCCUGCAUCAGCUUGCAUAGUAUUUAGUUA | – | 0.0591 ± 0.011 | 0.322 ± 0.021 | – |
| UCCUGCUACAGCUUGCAAAGUAUUUAGAAA | 0.00086 ± 0.0062 | 0.00352 ± 0.002 | – | – |
| UCCUGGAUGUCCUUGCAUAGUAUUUCGUUA | 0.00253 ± 0.0033 | 0.000876 ± 0.0033 | – | – |
| UCCUGGAUGUCGAACGAUAGUAUAUAGUUA | 0.000134 ± 0.033 | 0.000129 ± 0.032 | – | – |
| UCCUCCUACAGCUUGCAUAGUAUUUAGUGUA | 0.00287 ± 0.0034 | 0.00735 ± 0.0033 | – | – |

Taken from the results shown (three entries):

| Sequence | pre-steady-state target cleavage rate [1, 3] | pre-steady-state target cleavage rate [2, 4] | pre-steady-state target cleavage rate [1, 5] | pre-steady-state target cleavage rate [2, 6] |
| --- | --- | --- | --- | --- |
| UCCUGGUACACCUUGGAUAGUAUUUAGUUA | 0.00369 ± 0.0047 | 0.0012 ± 0.0035 | – | – |
| UCCUCCUACAGCUUGCAUAGCAUUUAGUUA | 0.00232 ± 0.0026 | 0.00463 ± 0.0019 | – | – |
| UCCUGGAUGUCGAUGCACUAGUAUUUAGUUA | 0.00013 ± 0.024 | 0.000153 ± 0.023 | – | – |

(listing goes on)

| Sequence | pre-steady-state target cleavage rate [1, 3] | pre-steady-state target cleavage rate [2, 4] | pre-steady-state target cleavage rate [1, 5] | pre-steady-state target cleavage rate [2, 6] |
| --- | --- | --- | --- | --- |
| UCCUCCUACAGCUUGCAUAGUAAUUAGAUA | 0.00145 ± 0.0041 | 0.00553 ± 0.0026 | – | – |
| UCCUCCUACAGCUUGCAUACUAUUUAGUAA | 0.00148 ± 0.0041 | 0.00454 ± 0.0033 | – | – |
| UCCUCGUACAGCUUGCAUAGUAUUUACUUA | 0.00197 ± 0.0037 | 0.00206 ± 0.0043 | – | – |
| UCCUGGAUGUGCUUGCUUAGUAUUUACUUA | 0.00295 ± 0.0031 | 0.000292 ± 0.014 | – | – |
| UCCUGCUUGUGCUUGCAUAGUAUUUAGUAA | 0.00149 ± 0.0043 | 0.00475 ± 0.0026 | – | – |
| UCCUGGAACAGCUUGCAAAGUAUUUACUUA | 0.00214 ± 0.0033 | 0.00154 ± 0.0037 | – | – |
| UCCUGGAUGUCGAACGUAAGUAUUUAGAUA | 0.000155 ± 0.024 | 0.000136 ± 0.031 | – | – |
| UCCUCCUACAGCUUGGAUAGUAUUUAGAUA | 0.00141 ± 0.0039 | 0.00474 ± 0.0018 | – | – |
| UCCUGGAUGUCGAAGCAUAGUAUUUGUUA | < 0.0001 | 0.000778 ± 0.0068 | – | – |
| UCCUGGAUCAGCUUGCAUAGUUAAUAGUUA | 0.00274 ± 0.003 | – | – | 0.000682 ± 0.013 |
| UCCUGGUACAGCUUGCAUAGUAUUGAGUUA | 0.00343 ± 0.0035 | 0.00418 ± 0.0024 | – | – |
| UCCUGCUACACGUUGCAUAGUAUUUAGUUA | – | 0.0175 ± 0.0063 | 0.289 ± 0.026 | – |
| UCCUGCUACAGCUUGCAUAGUAUUUAGUUC [g2:g25:cont:t1C] | – | 0.0645 ± 0.016 | 0.317 ± 0.021 | – |
| UCCUGGAUCAGCUUGCAUUGUAUUUAGAAA | 0.00151 ± 0.0039 | 0.00264 ± 0.0021 | – | – |
| UCCUGGAACAGCAUGCAUAGUAUUUACUUA | 0.00132 ± 0.0059 | 0.00102 ± 0.0044 | – | – |
| UCCUGGAAGAGCUUGCAUAGUAUUUAGAAA | 0.00211 ± 0.0037 | 0.00533 ± 0.002 | – | – |
| UCCUGGAUCAGCUUGGAUAGUAUUUACUUA | 0.000327 ± 0.019 | 0.000346 ± 0.0089 | – | – |
| UCCUGGUACAGCUUGCAUAGUAUUUAGUAA | – | 0.0108 ± 0.0041 | 0.283 ± 0.036 | – |
| UCCUGGAUGUCGUUGCUUAGUAUUAAGUUA | 0.00176 ± 0.0049 | 0.000189 ± 0.014 | – | – |
| UCCUGCUACUGCUUGCAUAGUAUUUAGAAA | 0.000779 ± 0.0064 | 0.00545 ± 0.0023 | – | – |
| UCCUGCUACAGCUUGCAUAGUAUUUACUAA | 0.00205 ± 0.0047 | 0.0025 ± 0.0024 | – | – |
| UCCUCCUUCAGCUUGCAUAGUAUUUACAAA | 0.00132 ± 0.0045 | 0.00379 ± 0.0027 | – | – |
| UCCUGCAUCAGCUUGCAUAGUAUUUAGAAA | 0.00131 ± 0.0039 | – | – | 0.000401 ± 0.013 |
| UCCUGGAUGUGCUUCCAUACUAUUUAGUUA | 0.000472 ± 0.012 | 0.00132 ± 0.006 | – | – |
| UCCUGGAUCAGCUUGCAUUGUAUUUAGAUA | 0.00239 ± 0.0033 | 0.00276 ± 0.0021 | – | – |
